Earlier results in patent publication US20090068174A1, “THERAPEUTIC ALKALINE PROTEASE COMPOSITIONS AND USE IN FACILITATING THE TRANSPORT OF AGENTS ACROSS THE GASTROINTESTINAL MUCOSAL LINING” (Kansas University Medical Center Research Institute, Inc., priority 2007, published 2009).

How the values were obtained:
[1] = Table 1; cited from earlier work
[2] = Table 4; pH optima vary with substrate; cited from earlier work

B1: Alkaline Protease: Aspergillus oryzae alkaline protease (oryzin), SEQ ID NO: 2, purified from the protease powder of Example 1 (protein, listed as Aspergillus oryzae)
chain: MQSIKRTLLLLGAILPAVLGAPVQETRRAAEKLPGKYIVTFKPGIDEAKIQEHTTWATNIHQRSLERRGATGGDLPVGIERNYKINKFAAYAGSFDDATIEEIRKNEDVAYVEEDQIYYLDGLTTQKSAPWGLGSISHKGQQSTDYIYDTSAGEGTYAYVVDSGVNVDHEEFEGRASKAYNAAGGQHVDSIGHGTHVSGTIAGKTYGIAKKASILSVKVFQGESSSTSVILDGFNWAANDIVSKKRTSKAAINMSLGGGYSKAFNDAVENAFEQGVLSVVAAGNENSDAGQTSPASAPDAITVAAIQKSNNRASFSNFGKVVDVFAPGQDILSAWIGSSSATNTISGTSMATPHIVGLSLYLAALENLDGPAAVTKRIKELATKDWKDVKGSPNLLAYNGNA
- pH optimum [1]: 7.0-10.0
- pH optimum [2]: pH 7-10

B2: 26 kDa Protease: A. oryzae protease cloned recently by Novozyme, labeled the 26 kDa protease, SEQ ID NO: 3 (protein, listed as Aspergillus oryzae)
chain: HASADAWASSKAISSTSSPSSFKMRFISVSSLLLALAPALNAVPVEVAGSAQGLDVTLSQVGNTRIKAWKNTGSEDVTFVHLNFFKDAAPVQKVSLFRNATEVQFQGIKQRLITEGLSDDALTTLAPGATIEDEFDIASTSDLSEGGTITINSNGLVPITTDNKVTGYIPFTSNELSIDVDAAEAASVTQAVKILERRTKVTSCSGSRLSALQTALRNTVSLARAAATAAQSGSSSRFQEYFKTTSSSTRSTVAARLNAVANEAASTSSGSTTYYCSDVYGYCSSNVLAYTLPSYNIIANCDLYYSYLPALTSTCHAQDQATTTLHEFTHAPGVYSPGTDDLGYGYSAATALSASQALLNADTYALFANAVNLNC
- pH optimum [2]: 7.0

Read-outs that look alike come from different tables or passages of the source.
